From paper PMC5344696
Where a chain is given by its changes, count along the chain named. In names and notes the source's numbering stands. Results are given in words; binding and its absence hold for the method and conditions named. For some assays here: Binding seen in cells or lysates may run through a third protein. Some binding calls cover weakened binding; strength is not graded here. For some assays here: Sequences can lack the tags named with a protein. One block for each binder: values may come before it.

Sequences of proteins named here, by UniProt entry; tags and fusion partners are left off.
UniProt Q8IY92: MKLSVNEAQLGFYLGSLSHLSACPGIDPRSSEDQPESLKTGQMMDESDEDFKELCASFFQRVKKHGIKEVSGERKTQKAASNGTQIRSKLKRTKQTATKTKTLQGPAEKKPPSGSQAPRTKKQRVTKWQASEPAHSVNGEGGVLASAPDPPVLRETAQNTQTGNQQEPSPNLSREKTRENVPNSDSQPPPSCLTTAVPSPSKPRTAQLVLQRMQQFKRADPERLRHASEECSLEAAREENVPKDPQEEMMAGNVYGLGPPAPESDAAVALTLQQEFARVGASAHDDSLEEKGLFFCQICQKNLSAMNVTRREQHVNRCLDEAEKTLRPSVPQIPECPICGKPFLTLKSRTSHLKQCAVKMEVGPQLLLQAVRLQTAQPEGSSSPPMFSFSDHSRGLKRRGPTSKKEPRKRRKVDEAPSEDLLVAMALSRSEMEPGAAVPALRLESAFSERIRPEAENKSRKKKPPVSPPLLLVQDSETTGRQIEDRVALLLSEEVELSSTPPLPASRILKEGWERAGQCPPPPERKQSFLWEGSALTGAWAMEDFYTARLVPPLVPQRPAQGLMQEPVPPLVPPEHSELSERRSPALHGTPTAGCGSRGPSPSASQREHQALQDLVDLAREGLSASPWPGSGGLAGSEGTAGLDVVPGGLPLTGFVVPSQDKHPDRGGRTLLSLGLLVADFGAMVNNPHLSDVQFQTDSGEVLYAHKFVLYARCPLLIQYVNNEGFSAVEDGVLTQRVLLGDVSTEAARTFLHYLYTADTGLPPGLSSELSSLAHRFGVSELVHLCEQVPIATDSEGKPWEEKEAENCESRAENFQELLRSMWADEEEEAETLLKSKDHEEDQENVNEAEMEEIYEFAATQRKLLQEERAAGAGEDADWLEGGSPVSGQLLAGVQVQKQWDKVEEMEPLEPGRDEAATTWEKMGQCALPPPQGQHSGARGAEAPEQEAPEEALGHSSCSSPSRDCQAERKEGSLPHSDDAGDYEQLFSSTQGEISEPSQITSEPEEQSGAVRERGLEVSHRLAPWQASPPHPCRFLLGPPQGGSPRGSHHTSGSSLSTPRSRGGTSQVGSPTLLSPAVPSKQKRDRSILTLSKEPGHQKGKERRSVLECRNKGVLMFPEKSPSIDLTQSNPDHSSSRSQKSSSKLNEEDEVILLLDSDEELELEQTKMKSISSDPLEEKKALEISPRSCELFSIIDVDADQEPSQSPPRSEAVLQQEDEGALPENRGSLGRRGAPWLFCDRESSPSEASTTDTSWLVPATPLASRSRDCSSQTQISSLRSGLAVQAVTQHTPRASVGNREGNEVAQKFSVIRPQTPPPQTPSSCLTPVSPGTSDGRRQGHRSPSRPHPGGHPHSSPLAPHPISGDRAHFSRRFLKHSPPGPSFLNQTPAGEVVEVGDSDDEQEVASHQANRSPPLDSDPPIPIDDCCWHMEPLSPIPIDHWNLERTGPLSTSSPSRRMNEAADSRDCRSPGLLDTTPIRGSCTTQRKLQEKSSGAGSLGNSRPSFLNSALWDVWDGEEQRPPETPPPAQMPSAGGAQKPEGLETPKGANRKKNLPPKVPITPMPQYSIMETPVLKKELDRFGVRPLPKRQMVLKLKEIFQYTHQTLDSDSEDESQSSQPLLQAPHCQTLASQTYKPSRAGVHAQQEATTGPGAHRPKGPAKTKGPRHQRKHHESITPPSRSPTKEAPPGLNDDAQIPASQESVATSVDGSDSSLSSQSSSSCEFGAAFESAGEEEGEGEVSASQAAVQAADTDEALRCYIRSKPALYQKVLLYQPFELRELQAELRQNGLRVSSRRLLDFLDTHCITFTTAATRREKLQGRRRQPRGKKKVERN

What was measured:
[1] = molecular target: _(FLAG)SLX4 (human) (UniProt Q8IY92); assay: co-IP + co-sedimentation; _(FLAG)SLX4 precipitated on anti-FLAG M2 agarose from extracts of G2/M-phase cells, eluted with 3x FLAG peptide, then run on a 10%-45% sucrose gradient; fractions blotted
[2] = molecular target: _(FLAG)SLX4 (human) (UniProt Q8IY92); assay: co-sedimentation; 10%-45% sucrose gradients of whole-cell extracts of Flp-In T-REx 293 cells expressing _(FLAG)SLX4, synchronized at G1/S (double thymidine) or G2/M (thymidine, then nocodazole); SG buffer 25 mM Tris-HCl pH 8.0, 150 mM NaCl, 4°C; fractions blotted
[3] = molecular target: _(STREP)SLX4 (human) (UniProt Q8IY92); assay: three-step affinity co-purification; SMX from Hi5 cells co-infected with SM and XPF-ERCC1 baculoviruses; anti-FLAG M2 agarose, HisTRAP HP, StrepTactin Macroprep; 500 mM NaCl; SDS-PAGE
[4] = molecular target: _(STREP)SLX4 (human) (UniProt Q8IY92); assay: tandem affinity co-purification; SM from Hi5 cells infected with one baculovirus; StrepTactin Superflow, anti-FLAG M2 agarose, HiTRAP SP HP; 500 mM NaCl in the affinity steps

B1: ERCC1 (protein, UniProt P07992 1-297)
chain: MDPGKDKEGVPQPSGPPARKKFVIPLDEDEVPPGVAKPLFRSTQSLPTVDTSAQAAPQTYAEYAISQPLEGAGATCPTGSEPLAGETPNQALKPGAKSNSIIVSPRQRGNPVLKFVRNVPWEFGDVIPDYVLGQSTCALFLSLRYHNLHPDYIHGRLQSLGKNFALRVLLVQVDVKDPQQALKELAKMCILADCTLILAWSPEEAGRYLETYKAYEQKPADLLMEKLEQDFVSRVTECLTTVKSVNKTDSQTLLTTFGSLEQLIAASREDLALCPGLGPQKARRLFDVLHEPFLKVP
binding [1]: binds
binding [2]: binds

B3: XPF (protein, UniProt Q92889 1-916)
chain: MESGQPARRIAMAPLLEYERQLVLELLDTDGLVVCARGLGADRLLYHFLQLHCHPACLVLVLNTQPAEEEYFINQLKIEGVEHLPRRVTNEITSNSRYEVYTQGGVIFATSRILVVDFLTDRIPSDLITGILVYRAHRIIESCQEAFILRLFRQKNKRGFIKAFTDNAVAFDTGFCHVERVMRNLFVRKLYLWPRFHVAVNSFLEQHKPEVVEIHVSMTPTMLAIQTAILDILNACLKELKCHNPSLEVEDLSLENAIGKPFDKTIRHYLDPLWHQLGAKTKSLVQDLKILRTLLQYLSQYDCVTFLNLLESLRATEKAFGQNSGWLFLDSSTSMFINARARVYHLPDAKMSKKEKISEKMEIKEGEETKKELVLESNPKWEALTEVLKEIEAENKESEALGGPGQVLICASDDRTCSQLRDYITLGAEAFLLRLYRKTFEKDSKAEEVWMKFRKEDSSKRIRKSHKRPKDPQNKERASTKERTLKKKKRKLTLTQMVGKPEELEEEGDVEEGYRREISSSPESCPEEIKHEEFDVNLSSDAAFGILKEPLTIIHPLLGCSDPYALTRVLHEVEPRYVVLYDAELTFVRQLEIYRASRPGKPLRVYFLIYGGSTEEQRYLTALRKEKEAFEKLIREKASMVVPEEREGRDETNLDLVRGTASADVSTDTRKAGGQEQNGTQQSIVVDMREFRSELPSLIHRRGIDIEPVTLEVGDYILTPEMCVERKSISDLIGSLNNGRLYSQCISMSRYYKRPVLLIEFDPSKPFSLTSRGALFQEISSNDISSKLTLLTLHFPRLRILWCPSPHATAELFEELKQSKPQPDAATALAITADSETLPESEKYNPGPQDFLLKMPGVNAKNCRSLMHHVKNIAELAALSQDELTSILGNAANAKQLYDFIHTSFAEVVSKGKGKK
binding [3]: binds
binding [1]: binds
binding [2]: binds

B5: SLX1 (protein, UniProt Q9BQ83 1-275)
chain: MGPAGVAARPGRFFGVYLLYCLNPRYRGRVYVGFTVNTARRVQQHNGGRKKGGAWRTSGRGPWEMVLVVHGFPSSVAALRFEWAWQHPHASRRLAHVGPRLRGETAFAFHLRVLAHMLRAPPWARLPLTLRWVRPDLRQDLCLPPPPHVPLAFGPPPPQAPAPRRRAGPFDDAEPEPDQGDPGACCSLCAQTIQDEEGPLCCPHPGCLLRAHVICLAEEFLQEEPGQLLPLEGQCPCCEKSLLWGDLIWLCQMDTEKEVEDSELEEAHWTDLLET
binding [1]: binds
binding [2]: binds

B6: V5SLX1 (protein, UniProt Q9BQ83 1-275)
chain: B5 chain
binding [4]: binds
binding [3]: binds

B7: V5SLX1^R41A/E82A (protein, UniProt Q9BQ83 1-275)
chain: B5 chain with R41A, E82A
binding [4]: binds
binding [3]: binds

B9: EME1 (protein, UniProt Q96AY2 1-570)
chain: MALKKSSPSLDSGDSDSEELPTFAFLKKEPSSTKRRQPEREEKIVVVDISDCEASCPPAPELFSPPVPEIAETVTQTQPVRLLSSESEDEEEFIPLAQRLTCKFLTHKQLSPEDSSSPVKSVLDHQNNEGASCDWKKPFPKIPEVPLHDTPERSAADNKDLILDPCCQLPAYLSTCPGQSSSLAVTKTNSDILPPQKKTKPSQKVQGRGSHGCRQQRQARQKESTLRRQERKNAALVTRMKAQRPEECLKHIIVVLDPVLLQMEGGGQLLGALQTMECRCVIEAQAVPCSVTWRRRAGPSEDREDWVEEPTVLVLLRAEAFVSMIDNGKQGSLDSTMKGKETLQGFVTDITAKTAGKALSLVIVDQEKCFSAQNPPRRGKQGANKQTKKQQQRQPEASIGSMVSRVDAEEALVDLQLHTEAQAQIVQSWKELADFTCAFTKAVAEAPFKKLRDETTFSFCLESDWAGGVKVDLAGRGLALVWRRQIQQLNRVSLEMASAVVNAYPSPQLLVQAYQQCFSDKERQNLLADIQVRRGEGVTSTSRRIGPELSRRIYLQMTTLQPHLSLDSAD
binding [1]: binds
binding [2]: binds

Next, values leading:

binding [3]: binds
B2: _(His6)ERCC1 (protein, UniProt P07992 1-297)
chain: B1 chain

binding [3]: binds
B4: XPF^D705A (protein, UniProt Q92889 1-916)
chain: B3 chain with D705A

binding [4]: binds
binding [3]: binds
B8: _(FLAG)EME1 (protein, UniProt Q96AY2 1-570)
chain: B9 chain
